Reference: US9682125B2, “Compositions and methods for treating cognitive deficits” (Case Western Reserve University, priority 2011, dated 2017)

System: SAMP8 mice
Experiment: Object recognition task
Assay type: in vivo
Conditions: vs saline-treated group
Experimental: All SAMP8 mice were treated with either saline or pramlintide beginning at 6 months of age. A subcutaneous ALZET® osmotic minipump (Model 2002, Durect Corp., Cupertino, Calif., USA) was surgically implanted into all mice as described previously^26. The osmotic mini-pump infused 0.24 mg/kg/day pramlintide acetate (0.6 mg/mL pramlintide, Amylin Pharmaceuticals, Inc., San Diego, Calif.) or saline at a rate of 0.5 μL/hr. Pumps were replaced with new refilled pumps every two weeks throughout the study duration. All animals were weighed weekly throughout the course of the experiment.
A total of 20 SAMP8 mice were used in the object recognition task. […] The mice were allowed to explore the environment for 10 minutes, during which their movements were recorded with a tracking system. […]
Videos recordings of the retention session were scored by an investigator blinded to the treatment groups. Object exploration, defined as the duration of time in which the head of the mouse faced less than ½ cm from the object, was measured during the training and retention sessions. The frequency of object exploration was also recorded, as well as the frequency and time spent rearing and grooming to determine general exploratory behavior. […] The recognition index was calculated as the percent of time spent exploring the novel object versus the total time spent exploring the objects.

CC[C@H](C)[C@H](NC(=O)[C@@H]1CCCN1C(=O)CNC(=O)[C@H](Cc1ccccc1)NC(=O)[C@H](CC(N)=O)NC(=O)[C@H](CC(N)=O)NC(=O)[C@H](CO)NC(=O)[C@H](CO)NC(=O)[C@H](Cc1c[nH]cn1)NC(=O)[C@@H](NC(=O)[C@H](CC(C)C)NC(=O)[C@H](Cc1ccccc1)NC(=O)[C@H](CC(N)=O)NC(=O)[C@H](C)NC(=O)[C@H](CC(C)C)NC(=O)[C@H](CCCNC(=N)N)NC(=O)[C@H](CCC(N)=O)NC(=O)[C@@H](NC(=O)[C@H](C)NC(=O)[C@@H]1CSSC[C@H](NC(=O)[C@@H](N)CCCCN)C(=O)N[C@@H](CC(N)=O)C(=O)N[C@@H]([C@@H](C)O)C(=O)N[C@@H](C)C(=O)N[C@@H]([C@@H](C)O)C(=O)N1)[C@@H](C)O)C(C)C)C(=O)N[C@@H](CC(C)C)C(=O)N1CCC[C@H]1C(=O)N1CCC[C@H]1C(=O)N[C@H](C(=O)N[C@@H](CC(N)=O)C(=O)N[C@H](C(=O)NCC(=O)N[C@@H](CO)C(=O)N[C@@H](CC(N)=O)C(=O)N[C@H](C(=O)N[C@@H](Cc1ccc(O)cc1)C(N)=O)[C@@H](C)O)C(C)C)[C@@H](C)O [pramlintide]
exploratory behavior, time spent grooming: no difference
exploratory behavior, time spent rearing: no difference
